Data source: PubChem BioAssay AID493246 (Drosophila RNAi Screening Center, 2011)

- Screen: 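Genes fly cells need to grow and stay alive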 (primary screen)
- System: Drosophila Kc and S2R+ cells
- Reagent: long dsRNA against Drosophila genes
- Read-out: 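Cell number per well after knock-down, printed as raw plate values; calls were based on per-plate z-scores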
- Reading the numbers: Kc cell number and S2R+ cell number: higher = more cells remaining
- Active means: 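Counted as a hit if cell number falls by a z-score of at least 3 within its plate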
The screen tested about 21,000 reagents; this is a random part of those with a known target gene and a result. Of all reagents, 429 (2%) were called active. 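Values are raw and not normalised between plates; calls rest on per-plate z-scores that were not deposited.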 The record does not give: the amount of reagent, the time to read-out.

Art2 (GeneID 33631) [DRSC00627] → Kc cell number, rep 1 = 1.57e6; Kc cell number, rep 2 = 1.64e6; S2R+ cell number, rep 1 = 1.13e6; S2R+ cell number, rep 2 = 1.31e6; Call = inactive
Egfr (GeneID 37455) [DRSC03871] → Kc cell number, rep 1 = 6.42e5; S2R+ cell number, rep 1 = 9.05e5; Call = inactive
Egfr (GeneID 37455) [DRSC04613] → Kc cell number, rep 1 = 1.30e6; Kc cell number, rep 2 = 1.42e6; S2R+ cell number, rep 1 = 1.15e6; S2R+ cell number, rep 2 = 1.22e6; Call = inactive
CG12730 (GeneID 31466) [DRSC17885] → Kc cell number, rep 1 = 1.55e6; Kc cell number, rep 2 = 1.55e6; S2R+ cell number, rep 1 = 1.03e6; S2R+ cell number, rep 2 = 1.11e6; Call = inactive
Ttc19 (GeneID 35172) [DRSC02474] → Kc cell number, rep 1 = 1.55e6; Kc cell number, rep 2 = 1.56e6; S2R+ cell number, rep 1 = 1.10e6; S2R+ cell number, rep 2 = 3.17e5; Call = inactive
Hat1 (GeneID 40716) [DRSC12298] → Kc cell number, rep 1 = 1.36e6; Kc cell number, rep 2 = 1.41e6; S2R+ cell number, rep 1 = 1.28e6; S2R+ cell number, rep 2 = 1.38e6; Call = inactive
Irbp (GeneID 117419) [DRSC17007] → Kc cell number, rep 1 = 1.47e6; Kc cell number, rep 2 = 1.50e6; S2R+ cell number, rep 1 = 1.29e6; S2R+ cell number, rep 2 = 1.40e6; Call = inactive
SmD2 (GeneID 40781) [DRSC12536] → Kc cell number, rep 1 = 1.35e6; Kc cell number, rep 2 = 1.47e6; S2R+ cell number, rep 1 = 7.70e5; S2R+ cell number, rep 2 = 8.92e5; Call = inactive
COX3 (retired record) (GeneID 192471) [DRSC21279] → Kc cell number, rep 1 = 1.57e6; Kc cell number, rep 2 = 1.59e6; S2R+ cell number, rep 1 = 1.19e6; S2R+ cell number, rep 2 = 1.29e6; Call = inactive
CG34417 (GeneID 31591) [DRSC17467] → Kc cell number, rep 1 = 1.26e6; Kc cell number, rep 2 = 1.54e6; S2R+ cell number, rep 1 = 1.07e6; S2R+ cell number, rep 2 = 1.22e6; Call = inactive
CG34417 (GeneID 31591) [DRSC18332] → Kc cell number, rep 1 = 1.53e6; Kc cell number, rep 2 = 1.42e6; S2R+ cell number, rep 1 = 1.02e6; S2R+ cell number, rep 2 = 1.10e6; Call = inactive
CG34417 (GeneID 31591) [DRSC18333] → Kc cell number, rep 1 = 6.03e5; S2R+ cell number, rep 1 = 9.17e5; Call = inactive
CG13674 (GeneID 38921) [DRSC10033] → Kc cell number, rep 1 = 1.63e6; Kc cell number, rep 2 = 1.72e6; S2R+ cell number, rep 1 = 1.26e6; S2R+ cell number, rep 2 = 1.13e6; Call = inactive
CG13958 (retired record) (GeneID 35271) [DRSC02300] → Kc cell number, rep 1 = 1.57e6; Kc cell number, rep 2 = 1.55e6; S2R+ cell number, rep 1 = 1.24e6; S2R+ cell number, rep 2 = 3.17e5; Call = inactive
mtm (GeneID 33845) [DRSC03576] → Kc cell number, rep 1 = 1.17e6; Kc cell number, rep 2 = 1.30e6; S2R+ cell number, rep 1 = 4.47e5; S2R+ cell number, rep 2 = 6.98e5; Call = inactive
Hug (GeneID 41547) [DRSC16969] → Kc cell number, rep 1 = 1.43e6; Kc cell number, rep 2 = 1.43e6; S2R+ cell number, rep 1 = 1.31e6; S2R+ cell number, rep 2 = 1.39e6; Call = inactive
CG13694 (GeneID 33169) [DRSC00363] → Kc cell number, rep 1 = 1.55e6; Kc cell number, rep 2 = 1.57e6; S2R+ cell number, rep 1 = 1.09e6; S2R+ cell number, rep 2 = 1.25e6; Call = inactive
CG11333 (GeneID 43714) [DRSC14301] → Kc cell number, rep 1 = 1.64e6; Kc cell number, rep 2 = 1.61e6; S2R+ cell number, rep 1 = 9.71e5; S2R+ cell number, rep 2 = 1.13e6; Call = inactive
CG10301 (GeneID 42797) [DRSC14226] → Kc cell number, rep 1 = 1.57e6; Kc cell number, rep 2 = 1.55e6; S2R+ cell number, rep 1 = 9.98e5; S2R+ cell number, rep 2 = 1.09e6; Call = inactive
Pss (GeneID 40281) [DRSC11757] → Kc cell number, rep 1 = 1.59e6; Kc cell number, rep 2 = 1.71e6; S2R+ cell number, rep 1 = 1.31e6; S2R+ cell number, rep 2 = 1.42e6; Call = inactive
CG15646 (GeneID 32501) [DRSC19682] → Kc cell number, rep 1 = 1.62e6; Kc cell number, rep 2 = 1.60e6; S2R+ cell number, rep 1 = 1.04e6; S2R+ cell number, rep 2 = 1.18e6; Call = inactive
Ald1 (GeneID 43183) [DRSC14109] → Kc cell number, rep 1 = 5.14e5; S2R+ cell number, rep 1 = 6.51e5; Call = inactive
Orai (GeneID 37040) [DRSC05684] → Kc cell number, rep 1 = 5.79e5; S2R+ cell number, rep 1 = 7.94e5; Call = inactive
Or94b (GeneID 42712) [DRSC16773] → Kc cell number, rep 1 = 1.44e6; Kc cell number, rep 2 = 1.39e6; S2R+ cell number, rep 1 = 9.56e5; S2R+ cell number, rep 2 = 1.08e6; Call = inactive
fln (GeneID 40185) [DRSC11346] → Kc cell number, rep 1 = 1.49e6; Kc cell number, rep 2 = 1.55e6; S2R+ cell number, rep 1 = 1.18e6; S2R+ cell number, rep 2 = 1.27e6; Call = inactive
CG6664 (GeneID 39903) [DRSC10690] → Kc cell number, rep 1 = 1.56e6; Kc cell number, rep 2 = 1.63e6; S2R+ cell number, rep 1 = 1.14e6; S2R+ cell number, rep 2 = 1.23e6; Call = inactive
RecQ5 (GeneID 39594) [DRSC11266] → Kc cell number, rep 1 = 1.55e6; Kc cell number, rep 2 = 1.64e6; S2R+ cell number, rep 1 = 1.21e6; S2R+ cell number, rep 2 = 1.22e6; Call = inactive

Reformatted: entries from further up
gene,DRSC id,"Kc cell number, rep 1","Kc cell number, rep 2","S2R+ cell number, rep 1","S2R+ cell number, rep 2",Call
Orai (GeneID 37040),DRSC05684,5.79e5,,7.94e5,,inactive
Or94b (GeneID 42712),DRSC16773,1.44e6,1.39e6,9.56e5,1.08e6,inactive
fln (GeneID 40185),DRSC11346,1.49e6,1.55e6,1.18e6,1.27e6,inactive
CG6664 (GeneID 39903),DRSC10690,1.56e6,1.63e6,1.14e6,1.23e6,inactive
